Results as given in publication PMC7192621.

What was measured:
[1] = target: T1, Myc (UniProt Q9W4S7); experiment: EMSA; conditions: 1-7 ug nucleoprotein, dose-dependent, impaired by anti-Myc antibody; EMSA/Gel-Shift Kit (Beyotime), 10 uL, 100 nM probe, 1-7 ug S2 nucleoproteins; 5% PAGE in TBE (45 mM Tris borate, 1 mM EDTA, pH 8.3); binding buffer; protein in a lysate after overexpression; residues 1-717
T1 sequence (looked up): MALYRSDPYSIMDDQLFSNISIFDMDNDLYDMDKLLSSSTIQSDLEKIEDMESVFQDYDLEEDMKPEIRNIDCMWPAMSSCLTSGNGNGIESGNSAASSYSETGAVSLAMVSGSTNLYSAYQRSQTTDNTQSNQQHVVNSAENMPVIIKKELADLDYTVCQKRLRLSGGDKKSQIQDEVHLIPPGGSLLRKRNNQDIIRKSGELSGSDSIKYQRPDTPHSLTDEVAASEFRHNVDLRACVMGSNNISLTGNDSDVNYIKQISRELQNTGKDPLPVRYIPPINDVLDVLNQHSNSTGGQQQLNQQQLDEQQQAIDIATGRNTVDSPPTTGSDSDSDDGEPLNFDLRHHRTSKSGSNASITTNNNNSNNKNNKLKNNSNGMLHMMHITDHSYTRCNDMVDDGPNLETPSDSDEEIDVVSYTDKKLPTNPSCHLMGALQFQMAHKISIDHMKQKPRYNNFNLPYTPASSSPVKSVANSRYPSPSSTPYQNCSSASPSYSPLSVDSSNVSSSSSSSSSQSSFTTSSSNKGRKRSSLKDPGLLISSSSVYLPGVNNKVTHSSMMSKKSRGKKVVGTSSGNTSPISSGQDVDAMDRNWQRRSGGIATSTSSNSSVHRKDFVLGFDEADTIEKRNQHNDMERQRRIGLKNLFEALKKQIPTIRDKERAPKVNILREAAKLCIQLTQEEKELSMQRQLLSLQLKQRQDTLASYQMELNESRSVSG

[2] = target: T1, Myc; experiment: competition with a labelled probe; conditions: unlabeled probe, 1-50-fold molar excess, 7 ug nucleoprotein; EMSA/Gel-Shift Kit (Beyotime), 10 uL, 100 nM probe, 1-7 ug S2 nucleoproteins; 5% PAGE in TBE (45 mM Tris borate, 1 mM EDTA, pH 8.3); binding buffer; protein in a lysate after overexpression; residues 1-717

Row | Sequence | binding result [1] | binding result [2]
1 | GCTGTGCACCAGTACTGGTCACACTAAAACTATCGAAAATTATCGCACGTATCGCATCT (double strand) [CycB promoter E-box probe] | binds | binds
2 | CAGAAAAAGGCGCCAAAACCGAGCAAAGCACGCAGCTGTAAACATTCGCAA (double strand) [MCM6 promoter E-box probe] | binds | binds

For at least one entry, the source does not settle the construct or the ends of the probe. Where cells or extracts were used, other partners may take part. Protein sequences can lack the tags named with them.
